{"sequences": {"note": "By UniProt entry, the sequences of proteins in these tests, tags left out. Where a name states a change or a piece, a line headed by the entry shows the natural chain unless it says otherwise.", "UniProt P25094": "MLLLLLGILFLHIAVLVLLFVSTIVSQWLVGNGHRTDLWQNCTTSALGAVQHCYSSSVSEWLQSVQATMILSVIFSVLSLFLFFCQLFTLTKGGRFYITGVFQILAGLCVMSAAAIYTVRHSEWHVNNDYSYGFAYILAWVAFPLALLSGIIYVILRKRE"}, "source": "PubChem BioAssay AID1508647", "about": "(National Center for Advancing Translational Sciences (NCATS), 2021)", "note": "The inconclusive results got no clear call from the source; some entries with a clear call stand among them for comparison. Potencies beside an inconclusive call are fits to weak or partial responses and may not hold up. Calls of active or inactive are those of the source. The call rests on the fitted dose curve; in most records, active means well fitted inhibition curve with a large enough effect; inconclusive means small, poorly fitted or top-dose-only effect, or another doubt; inactive means no such curve, though single readings can be large or run the other way."}
{"molecular_target": "Peripheral myelin protein 22 (Rattus norvegicus) (UniProt P25094)", "assay": "Cell-based HiBiT reporter assay to measure PMP22 protein expression in S16 Pmp22-HiBiT cells - Confirmatory screen", "conditions": "S16 Schwann cells Pmp22-HiBiT, luminescence, 48 h; series mostly up to 27.9 µM", "source_text": "Assay Provider: Jim Inglese Ph.D. National Center for Advancing Translational Science, National Institutes of Health, Rockville, MD CMT is a heterogeneous group of neurological disorders that affect approximately 1 in 2,500 people. In particular, the most common form of CMT, CMT1A is genetically linked to the duplication of the PMP22 gene which leads to Schwann cell overexpression, thus manifesting itself as a typical case of dose-sensitive diseases. To identify small molecule compounds that can mediate the expression of PMP22 we developed a phenotypic assay screening strategy by utilizing genome editing techniques to construct Schwann cell lines containing novel reporter technology to monitor the transcriptional or translational regulation of PMP22. For high sensitivity we use a bioluminescent reporter system embedded in the 3' UTR of the PMP22 gene (S16(c9) Pmp22-F2sN) to identify compounds that inhibit gene expression. […] We can further discriminate the effect of all transcriptionally active molecules on PMP22 translation or stability with an assay that incorporates a short NLuc peptide (HiBiT) at the C-terminus of expressed PMP22 (S16(f8) PMP22-HiBiT) allowing alpha complementation and luminescence detection of membrane-associated PMP22 protein. These assays were screened against the NCATS Sytravon Library Collection. Miniaturization of these assays to 1536-well plate format for quantitative high throughput screening (qHTS) yielded rich data sets immediately from the qHTS assay (S16(c9) Pmp22-F2sN), when compared with data from a cell viability assay (Cell TiterGlo) to identify compounds that decreased the output signals through cellular toxicity to streamline the selection process of actives for subsequent characterization using the HiBiT assay (S16(f8) PMP22-HiBiT).\nCell-based HiBiT reporter assay to measure PMP22 protein expression in S16 Pmp22-HiBiT cells PROTOCOL TABLE (format as described by Inglese J, Shamu CE and Guy RK. 2007) SEQUENCE No. (e.g., 1, 2, 3, etc.); PARAMETER (e.g., Cells, Incubation, Reagent, etc.); VALUE and DESCRIPTION. 1. Cells. Add 1,500 cells in 5 uL in growth media (DMEM High Glucose, No Phenol Red media + 10% heat-inactivated FBS + 1% Pen/Strep supplemented media) per well into Greiner 1536-well white/solid bottom high base, TC-treated plates. 2. Compounds. Library compounds and controls added at 23nL per well, transferred by Pin Tool. 3. Incubation. Incubate plates at 37C, 5% CO2, 95% RH for 48 h. 4. Media removal. Invert and centrifuge plates. 5. Reagent. Add 3uL NanoGlo HiBiT Lytic Detection Reagent per well of Greiner 1536-well plates. 6. Incubation. Incubate plates at room temperature for 15 min., protect from light. 7. Detector. NLuc luminescence measured using CCD-based camera (Viewlux). NOTES (numbers refer to Sequence numbers above; values are from representative experiments) 7. Luminescence Read: Clear filter; Exposure = 10 sec, Gain = High, Speed = Slow, Binning = 2X REFERENCES: 1. Inglese J, Shamu CE and Guy RK, Reporting data from high throughput screening of small molecule libraries, Nature Chemical Biology, 2007, 3(8): 438-441. doi.org/10.1038/nchembio0807-438 2. Yasgar A, Shinn P, Jadhav A, Auld DS, Michael S, Zheng W, Austin CP, Inglese J and Simeonov A, Compound Management for Quantitative High-Throughput Screening. J. Assoc. Lab. Auto., 2008, 13: 79-89. doi: 10.1016/j.jala.2007.12.004"}
{"compound": "Cn1c(=O)oc2cc(S(=O)(=O)N3CCCC(C(=O)N4CCN(c5cccc(Cl)c5)CC4)C3)ccc21", "note": "(stereo not given)", "Potency": "inconclusive: 3.63 µM [inhibitor, partial curve]"}
{"compound": "CCOc1cc(CNc2ccc(O)cc2)cc(Br)c1OCc1ccccc1", "Potency": "inactive"}
{"compound": "Cc1ccc(S(=O)(=O)c2nnn3c2nc(NC2CCCCCC2)c2sccc23)cc1C", "Potency": "inconclusive: 7.24 µM [inhibitor, partial curve]"}
{"compound": "CCN(CC)c1ccc(NC(=O)C2COc3ccc(OC)cc3C2)c(C)c1", "note": "(stereo not given)", "Potency": "inconclusive: 2.29 µM [inhibitor, full curve]"}
{"compound": "O=C(CSc1nc2c([nH]c3ccccc32)c(=O)n1-c1cccc(Cl)c1)c1ccccc1", "Potency": "inconclusive: 8.13 µM [inhibitor, partial curve]"}
{"compound": "COc1ccccc1CNC(=O)CSc1nnc(C)c2c(C)n(-c3ccccc3)nc12", "Potency": "inconclusive: 12.9 µM [inhibitor, single point]"}
{"compound": "COc1ccc(NC(=O)Cn2c(=O)n(CCC(=O)NCc3ccccc3OC)c(=O)c3ccccc32)cc1Cl", "Potency": "inconclusive: 20.4 µM [inhibitor, single point]"}
{"compound": "CCOC(=O)c1ccc(N2C(=O)c3[nH]nc(-c4ccc(C)cc4)c3C2c2ccc(O)c(OCC)c2)cc1", "note": "(stereo not given)", "Potency": "inactive"}
{"compound": "COc1ccccc1Nc1c2c(nc3ccc(NC(=O)/C=C/c4cccc(OC)c4OC)cc13)CCCC2", "Potency": "inactive"}
{"compound": "COc1ccccc1NC(=O)Cn1c(=O)n(-c2cccc(Cl)c2)c(=O)c2sc3ccccc3c21", "Potency": "active: 6.45 µM"}
{"compound": "CCOC(=O)c1c(NC(=O)c2nc(S(C)(=O)=O)ncc2Cl)sc(C(C)=O)c1C", "Potency": "inconclusive: 4.57 µM [inhibitor, partial curve, poor fit]"}
{"compound": "Cc1cccc(N2CCN(C(=O)C3CCCN(S(=O)(=O)c4ccc5c(c4)oc(=O)n5C)C3)CC2)c1C", "note": "(stereo not given)", "Potency": "inconclusive: 1.45 µM [inhibitor, full curve]"}
{"compound": "CCC(=O)C1=C(c2cccc([N+](=O)[O-])c2)N(C(=O)CC)n2c(nnc2C2CCCCC2)S1", "Potency": "inconclusive: 9.12 µM [inhibitor, single point]"}
{"compound": "O=S(=O)(NCC(c1ccco1)S(=O)(=O)c1cccs1)c1ccc(Cl)cc1", "note": "(stereo not given)", "Potency": "inactive"}
{"compound": "CC(=O)N1CCc2c(sc(NC(=O)CSc3ccccc3)c2-c2nc3ccccc3s2)C1", "Potency": "inconclusive: 14.5 µM [inhibitor, partial curve]"}
{"compound": "CCCN1CCN(CCCNC(=O)Cn2c(-c3cccs3)cc3ccccc32)CC1", "Potency": "inconclusive: 2.57 µM [inhibitor, full curve]"}
{"compound": "Cc1ccc(C)c(NC(=O)Cn2c(=O)n(Cc3ccccc3)c(=O)c3oc4ccccc4c32)c1", "Potency": "inconclusive: 20.4 µM [inhibitor, single point]"}
{"compound": "CCOc1ccc(NC(=O)CSc2oc(-c3ccc(F)cc3)nc2S(=O)(=O)c2ccc(C)cc2)cc1", "Potency": "inactive"}
{"compound": "CCCCS(=O)(=O)c1nc(-c2ccc(Br)cc2)cc(-c2ccccc2)c1C#N", "Potency": "inactive"}
{"compound": "CCCCCS(=O)(=O)c1oc(-c2cccs2)nc1S(=O)(=O)c1ccc(C)cc1", "Potency": "inactive"}
{"compound": "COC(=O)c1c(-c2ccc(Cl)cc2)noc1N1CCN(c2ccccc2OC)CC1", "Potency": "inactive"}
{"compound": "CCC(=O)N1CCc2cc(S(=O)(=O)CCC(=O)Nc3ccc(Cl)c(C(F)(F)F)c3)ccc21", "Potency": "inconclusive: 9.12 µM [inhibitor, partial curve]"}
{"compound": "COc1ccc(NC(=O)c2oc3ccccc3c2NC(=O)Cc2ccc(F)cc2)c(OC)c1", "Potency": "inactive"}
{"compound": "Clc1cccc(-c2noc3ncnc(NC4CCCCC4)c23)c1", "Potency": "inactive"}
{"compound": "Cc1ccc(CNC(=O)c2ccc(Nc3nc4ccccc4n4nnnc34)cc2)cc1", "Potency": "inconclusive: 22.9 µM [inhibitor, partial curve, poor fit]"}
{"compound": "Cc1ccccc1S(=O)(=O)Cc1ccc(C(=O)N2CCN(c3cccc(Cl)c3)CC2)o1", "Potency": "inconclusive: 16.2 µM [inhibitor, partial curve]"}
{"compound": "O=C(c1ccc(CS(=O)c2ccccc2Cl)o1)N1CCN(c2cccc(C(F)(F)F)c2)CC1", "note": "(stereo not given)", "Potency": "inconclusive: 0.407 µM [inhibitor, full curve]"}
{"compound": "COC(=O)CS(=O)(=O)c1nc2ccccc2nc1N1CCCCC1", "Potency": "inconclusive: 12.9 µM [inhibitor, partial curve, poor fit]"}
{"compound": "O=C(Cn1c(-c2cccs2)cc2ccccc21)NCCCN1CCN(c2ccc(F)cc2)CC1", "Potency": "inconclusive: 16.2 µM [inhibitor, partial curve]"}
{"compound": "COc1ccc(OC)c(NC(=O)CSc2c3c(nc4ccccc24)CCCC3)c1", "Potency": "inconclusive: 18.2 µM [inhibitor, partial curve]"}
{"compound": "Cc1ccc(OCC(=O)Nc2ccc3nc(SCC(=O)N4CCc5ccccc54)sc3c2)cc1", "Potency": "inconclusive: 3.63 µM [inhibitor, full curve]"}
{"compound": "COc1ccc(N(CC(=O)Nc2cc(Cl)ccc2C)S(=O)(=O)c2c(C)noc2C)cc1", "Potency": "inconclusive: 4.57 µM [inhibitor, full curve]"}
{"compound": "CCc1ccccc1Nc1nn2c(=O)c3ccc(C(=O)Nc4cc(C)cc(C)c4)cc3nc2s1", "Potency": "inactive"}
{"compound": "Cn1c(=O)oc2cc(S(=O)(=O)N3CCCC(C(=O)N4CCN(c5ccc(Cl)cc5)CC4)C3)ccc21", "note": "(stereo not given)", "Potency": "inconclusive: 1.15 µM [inhibitor, full curve]"}
{"compound": "COC(=O)c1c(-c2ccc(Cl)cc2)noc1N1CCN(c2cc(C)ccc2C)CC1", "Potency": "inconclusive: 10.2 µM [inhibitor, partial curve]"}
{"compound": "O=C(Cn1c(-c2cccs2)cc2cc(F)ccc21)NCCCN1CCN(c2ccccc2F)CC1", "Potency": "inconclusive: 12.9 µM [inhibitor, partial curve]"}
{"compound": "CCOC(=O)c1cc2c(=O)n3ccccc3nc2n(Cc2ccco2)c1=NC(=O)c1cc(C)cc(C)c1", "Potency": "inconclusive: 1.15 µM [inhibitor, full curve, poor fit]"}
{"compound": "COC(=O)c1ccccc1NC(=O)c1nc(S(=O)(=O)Cc2cccc(C)c2)ncc1Cl", "Potency": "inactive"}
{"compound": "Cc1cccc(CS(=O)(=O)c2ncc(Cl)c(C(=O)Nc3nc4ccc(F)cc4s3)n2)c1", "Potency": "inconclusive: 2.57 µM [inhibitor, partial curve, poor fit]"}
{"compound": "COc1ccc(CCNC(=O)Cn2c(-c3cccs3)cc3cc(F)ccc32)cc1OC", "Potency": "inconclusive: 2.88 µM [inhibitor, partial curve]"}
